# Measurements reported in PubChem BioAssay AID1224828 (NIAID, 2016).
# Purpose: 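Knock-downs that increase or decrease LPS-induced p65 nuclear translocation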 (primary screen)
# System: mouse RAW264.7 G9 macrophage reporter cells (GFP-p65, Tnf promoter-mCherry)
# Reagents: siRNA pool against mouse genes, 100 nM
# Time to read-out: 2 days siRNA transfection, then 40 min LPS before fixation
# Challenge: LPS (Salmonella minnesota R595) at 10 ng/ml
# Read-out: 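Microscopy ratio of nuclear to perinuclear-ring GFP-p65 signal, scaled to the plate median; gene score is the average of two replicate robust z-scores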
# Scale: p65 translocation robust z-score: higher = more nuclear NF-kappaB p65 after LPS than the plate median; nuclear/cytoplasmic p65 ratio: higher = more nuclear NF-kappaB p65
# Active means: 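Called active when z exceeds 3.3 or falls under -1.56 (median of Tlr4 controls), giving activity score of at least 50; no calls for control wells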
# Calls: active = hit (p65 shift raised or lowered); inactive = no clear change
# This is a random part of about 17,000 reagents. 762 of all reagents (4.5%) count as active. 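Active calls include both raised and lowered p65 entry, mostly lowered; wells with fewer than 50 cells lack a z-score.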 Raw values vary from plate to plate and are shown uncorrected. Entries without a mark were called inactive. The numbers tell different reagents against one gene apart. A reagent listed more than once was tested more than once; the source does not tell the runs apart.
Target gene,reagent,p65 translocation robust z-score,"nuclear/cytoplasmic p65 ratio, rep 1","nuclear/cytoplasmic p65 ratio, rep 2",low cell count flag
Dync1i1 (dynein cytoplasmic 1 intermediate chain 1),1,-0.39,1.39,1.36,enough cells to score
Fem1b (fem 1 homolog b),1,0.73,1.54,1.48,enough cells to score
Ephb1 (Eph receptor B1),1,,1.43,1.08,fewer than 50 cells per well; well left out of scoring
Kdelr1,1,-0.62,1.44,1.37,enough cells to score
Uroc1 (urocanase domain containing 1),1,-0.56,1.52,1.72,enough cells to score
Cbfa2t2 (CBFA2/RUNX1 translocation partner 2),1,-1.04,1.3,1.27,enough cells to score
Pex11a (peroxisomal biogenesis factor 11 alpha),1,0.21,1.5,1.42,enough cells to score
Vash1 (vasohibin 1),1,0.94,1.79,1.54,enough cells to score
Pofut1 (protein O-fucosyltransferase 1),1,-0.49,1.31,1.16,enough cells to score
"Upb1 (ureidopropionase, beta)",1,,1.52,1.28,fewer than 50 cells per well; well left out of scoring
Enpp5 (ectonucleotide pyrophosphatase/phosphodiesterase 5),1,2.57,2.02,1.51,enough cells to score
Cep20 (centrosomal protein 20),1,-0.63,1.41,1.47,enough cells to score
Dgcr2 (DiGeorge syndrome critical region gene 2),1,0.35,1.6,1.36,enough cells to score
Zfp810 (zinc finger protein 810),1,-0.79,1.47,1.71,enough cells to score
Slc10a4,1,-2.12 (active),1.21,1.07,enough cells to score
Plpp7 (phospholipid phosphatase 7 (inactive)),1,0.17,1.58,1.58,enough cells to score
Cd200r1l (CD200 receptor 1 like),1,-0.62,1.46,1.41,enough cells to score
Gzmf (granzyme F),1,-3.02 (active),1.24,1.06,enough cells to score
Fcrla (Fc receptor-like A),1,-0.11,1.57,1.63,enough cells to score
Spen (spen family transcription repressor),1,-0.69,1.15,1.26,enough cells to score
Lax1 (lymphocyte transmembrane adaptor 1),1,-0.47,1.51,1.21,enough cells to score
Csf2 (colony stimulating factor 2 (granulocyte-macrophage)),1,0.49,1.51,1.47,enough cells to score
Il34 (interleukin 34),1,-1.91 (active),1.14,1.06,enough cells to score
Ror1 (receptor tyrosine kinase-like orphan receptor 1),1,-0.25,1.65,1.35,enough cells to score
Nifk (nucleolar protein interacting with the FHA domain of MKI67),1,0.74,1.48,1.49,enough cells to score
"Sec24b (SEC24 homolog B, COPII coat complex component)",1,0.54,1.63,1.82,enough cells to score
"Chaf1b (chromatin assembly factor 1, subunit B)",1,1.1,1.65,1.75,enough cells to score
Ift20 (intraflagellar transport 20),1,0.29,1.49,1.57,enough cells to score
1810009J06Rik (RIKEN cDNA 1810009J06 gene),1,0.3,1.45,1.44,enough cells to score
Aatk (apoptosis-associated tyrosine kinase),1,1.35,1.53,1.74,enough cells to score
"Atg4b (autophagy related 4B, cysteine peptidase)",1,0.96,1.75,1.64,enough cells to score
Slc8b1,1,0.06,1.38,1.29,enough cells to score
"Gstt4 (glutathione S-transferase, theta 4)",1,,0.986,1.1,fewer than 50 cells per well; well left out of scoring
Fbln5 (fibulin 5),1,-0.89,1.28,1.31,enough cells to score
"Zgpat (zinc finger, CCCH-type with G patch domain)",1,0.28,1.63,1.87,enough cells to score
Armc5 (armadillo repeat containing 5),1,-0.57,1.37,1.88,enough cells to score
Fkbp10 (FK506 binding protein 10),1,0.37,1.67,1.5,enough cells to score
Evx1 (even-skipped homeobox 1),1,0.56,1.54,1.44,enough cells to score
Paqr8 (progestin and adipoQ receptor family member VIII),1,,1.55,1.66,fewer than 50 cells per well; well left out of scoring
"Tnfaip3 (tumor necrosis factor, alpha-induced protein 3)",1,1.52,1.69,1.77,enough cells to score
Pomk (protein-O-mannose kinase),1,-0.89,1.44,1.36,enough cells to score
Pomk (protein-O-mannose kinase),1,,1.24,1.18,fewer than 50 cells per well; well left out of scoring

Part of the list above, reformatted:
Slc8b1
- p65 translocation robust z-score: 0.06
- nuclear/cytoplasmic p65 ratio, rep 1: 1.38
- nuclear/cytoplasmic p65 ratio, rep 2: 1.29
- low cell count flag: enough cells to score

Gstt4 (glutathione S-transferase, theta 4)
- nuclear/cytoplasmic p65 ratio, rep 1: 0.986
- nuclear/cytoplasmic p65 ratio, rep 2: 1.1
- low cell count flag: fewer than 50 cells per well; well left out of scoring

Fbln5 (fibulin 5)
- p65 translocation robust z-score: -0.89
- nuclear/cytoplasmic p65 ratio, rep 1: 1.28
- nuclear/cytoplasmic p65 ratio, rep 2: 1.31
- low cell count flag: enough cells to score

Zgpat (zinc finger, CCCH-type with G patch domain)
- p65 translocation robust z-score: 0.28
- nuclear/cytoplasmic p65 ratio, rep 1: 1.63
- nuclear/cytoplasmic p65 ratio, rep 2: 1.87
- low cell count flag: enough cells to score

Armc5 (armadillo repeat containing 5)
- p65 translocation robust z-score: -0.57
- nuclear/cytoplasmic p65 ratio, rep 1: 1.37
- nuclear/cytoplasmic p65 ratio, rep 2: 1.88
- low cell count flag: enough cells to score

Fkbp10 (FK506 binding protein 10)
- p65 translocation robust z-score: 0.37
- nuclear/cytoplasmic p65 ratio, rep 1: 1.67
- nuclear/cytoplasmic p65 ratio, rep 2: 1.5
- low cell count flag: enough cells to score

Additional entries follow:
Target gene,reagent,p65 translocation robust z-score,"nuclear/cytoplasmic p65 ratio, rep 1","nuclear/cytoplasmic p65 ratio, rep 2",low cell count flag
"Ptprz1 (protein tyrosine phosphatase receptor type Z, polypeptide 1)",1,0.78,1.62,1.63,enough cells to score
Or6c216 (olfactory receptor family 6 subfamily C member 216),1,0.29,1.47,1.3,enough cells to score
Rnf113a2 (ring finger protein 113A2),1,,1.28,1.36,fewer than 50 cells per well; well left out of scoring
F2rl3 (F2R like thrombin or trypsin receptor 3),1,,1.44,1.43,fewer than 50 cells per well; well left out of scoring
"Fam110b (family with sequence similarity 110, member B)",1,0.3,1.41,1.48,enough cells to score
"Grik1 (glutamate receptor, ionotropic, kainate 1)",1,-1.3,1.34,1.13,enough cells to score
"Pde4d (phosphodiesterase 4D, cAMP specific)",1,0.91,1.57,1.53,enough cells to score
"Pde4d (phosphodiesterase 4D, cAMP specific)",2,,1.34,1.33,fewer than 50 cells per well; well left out of scoring
Robo3 (roundabout guidance receptor 3),1,-1.15,1.23,1.12,enough cells to score
Leng9 (leukocyte receptor cluster (LRC) member 9),1,-2.18 (active),1.25,1.13,enough cells to score
Slc38a4,1,,1.17,1.24,fewer than 50 cells per well; well left out of scoring
Ptprc (protein tyrosine phosphatase receptor type C),1,0.45,1.54,1.49,enough cells to score
Taf4b (TATA-box binding protein associated factor 4b),1,1.15,1.77,1.8,enough cells to score
Glis1 (GLIS family zinc finger 1),1,,1.27,1.25,fewer than 50 cells per well; well left out of scoring
Fxr1 (FMR1 autosomal homolog 1),1,0.47,1.52,1.41,enough cells to score
"Fam216a (family with sequence similarity 216, member A)",1,,1.89,0.714,fewer than 50 cells per well; well left out of scoring
Gdf11 (growth differentiation factor 11),1,0.27,1.45,1.43,enough cells to score
Slc44a4,1,,1.5,1,fewer than 50 cells per well; well left out of scoring
"Acad9 (acyl-Coenzyme A dehydrogenase family, member 9)",1,-0.45,1.49,1.66,enough cells to score
9530080O11Rik (RIKEN cDNA 9530080O11 gene),1,,1.23,1.51,fewer than 50 cells per well; well left out of scoring
Ppbp (pro-platelet basic protein),1,-0.35,1.41,1.35,enough cells to score
"Atp2b3 (ATPase, Ca++ transporting, plasma membrane 3)",1,,1.4,1.47,fewer than 50 cells per well; well left out of scoring
Hapln4 (hyaluronan and proteoglycan link protein 4),1,0.68,1.8,1.59,enough cells to score
Or6c76 (olfactory receptor family 6 subfamily C member 76),1,,1.98,1.25,fewer than 50 cells per well; well left out of scoring
5330430C04Rik (RIKEN cDNA 5330430C04 gene),1,-0.9,1.11,1.49,enough cells to score
Hmmr (hyaluronan mediated motility receptor (RHAMM)),1,-0.87,1.32,1.26,enough cells to score
Galnt7 (polypeptide N-acetylgalactosaminyltransferase 7),1,2.16,1.89,1.78,enough cells to score
Adamts15 (ADAM metallopeptidase with thrombospondin type 1 motif 15),1,-0.41,1.57,1.55,enough cells to score
Lrrc14 (leucine rich repeat containing 14),1,1.49,1.81,1.45,enough cells to score
Glod4 (glyoxalase domain containing 4),1,,1.37,1.33,fewer than 50 cells per well; well left out of scoring
Inhca (inhibitor of carbonic anhydrase),1,-1.62 (active),1.28,1.26,enough cells to score
Rock1 (Rho-associated coiled-coil containing protein kinase 1),1,-0.29,1.6,1.37,enough cells to score
Islr2 (immunoglobulin superfamily containing leucine-rich repeat 2),1,1.85,1.67,2.16,enough cells to score
